This is one part of the list.
Test system: T1, CTL2-GFP (C. trachomatis L2/434/Bu, GFP-expressing)
T1 construct: L2/434/Bu, GFP-expressing
Set-up: species or system HeLa; Intracellular C. trachomatis growth in HeLa cells, bulk GFP fluorescence relative to DMSO
Conditions: bulk GFP, single well; 28.5 h, 10 µM; inhibitor

Row | SMILES | % of control remaining [%]
1 | O=C(Nc1c(F)cc(F)cc1OC1CCNCC1)c1cccnc1 [CBK050275T] | 112.23
2 | Cn1nccc1CNCc1cc(Br)ccc1Cl [CBK305100] | 106.673
3 | Cc1cc(C(F)(F)F)nc(NCc2ccco2)n1 [CBK269555] | 99.1324
4 | Cc1c(NC(=O)CSc2nnc3c4ccccc4n(C(C)C)c3n2)c(=O)n(-c2ccccc2)n1C [CBK263916] | 100
5 | C[C@@H](c1ccccc1)n1c(=O)[nH]c2ncc(-c3cccc4ncccc34)nc21 [CBK064394] | 80.7305
6 | CC1CCCCN1CCCNc1cc(NS(=O)(=O)c2cn(C)cn2)cc2ccoc12 (stereo not shown) [CBK067940C] | 106.457
7 | CC1(C)CC(=O)C(=CNCCC(c2ccccc2)c2ccccc2)C(=O)C1 [CBK262057] | 84.1983
8 | CC(C)(C)C(=O)N1CCC(c2nc3ccccc3cc2N)CC1 [CBK285039] | 116.671
9 | COc1ccc(S(=O)(=O)N(C)CC(=O)NCc2cccnc2)cc1Cl [CBK268089] | 77.523
10 | Cc1c(C(=O)Nc2cccnc2)nnn1-c1cccc(C(F)(F)F)c1 [CBK107389] | 100.939
11 | CC(C)c1cc(C(=O)NC2CCN(c3ncccc3C#N)CC2)n(C)n1 [CBK306975] | 86.3427
12 | Cn1nccc1C(=O)N1CCN(c2ncccn2)CC1 [CBK288240] | 128.645
13 | CCN1CCN(CC(=O)N/N=C/c2ccc(F)cc2)CC1 [CBK261615] | 92.7252
14 | O=C(c1ccccn1)N1C[C@@H]2OCC(=O)N(Cc3ccccc3)[C@@H]2C1 [CBK289698] | 126.233
15 | OCCNCc1cc(Br)ccc1OCc1ccc(F)cc1 [CBK266421C] | 138.225
16 | CC(=O)Nc1cccc(Oc2nccnc2-c2cnn(Cc3ccccc3)c2)c1 [CBK107096] | 148.28
17 | CCCS(=O)(=O)NC1CCN(c2nc(C(F)(F)F)nc3ccsc23)CC1 [CBK304591] | 107.299
18 | O=C(Nc1ccncc1)c1cc2cc(OC(F)(F)F)ccc2[nH]1 [CBK107369] | 123.046
19 | O=C(NCCC1SC(NC2CCCCCC2)=NC1=O)Nc1ccc(C(F)(F)F)cc1Cl (stereo not shown) [CBK067682] | 122.862
20 | Oc1cccc(-c2cn3ccnc3c(NCc3ccccn3)n2)c1 [CBK037535] | 175.219
21 | COc1ccc([C@@]23CC[C@@H](NS(=O)(=O)c4cccc5cccnc45)C[C@@H]2N(C)CC3)cc1OC [CBK056849T] | 118.321
22 | c1ccc(C2CCCNC2)cc1 (stereo not shown) [CBK011753] | 97.5645
23 | CN1CCC(=NNC(=O)CSCc2ccccc2Br)CC1 [CBK026542] | 109.604
24 | COc1cc(CNC(=O)c2ccc(-c3ccc(NC(C)=O)cc3)nc2)cc(OC)c1OC [CBK158851] | 129.249
25 | CCOc1cc2c(cc1CN(Cc1ccc3c(c1)OCO3)CC(C)O)CCC2 (stereo not shown) [CBK286474] | 120.607
26 | COc1ccc(OC)c(NC(=O)CSc2nnc(-c3ccco3)o2)c1 [CBK267429] | 111.173
27 | CCn1c(=O)n(CC(=O)NCc2ccccc2)c2cccnc21 [CBK283824] | 96.5567

Row | SMILES | % of control remaining [%]
28 | CCc1cc(-c2n[nH]c(C(=O)O)c2-c2nc(C)cs2)c(O)cc1O [CBK268247] | 93.4827
29 | COc1ccc(-c2cc(C(F)(F)F)nc(SCC(=O)Nc3ccc4c(c3)OCO4)n2)cc1OC [CBK266169] | 174.046
30 | Cc1c(NCc2ccccn2)cccc1C(=O)O [CBK269651] | 126.54
31 | NNC(=O)c1cc(O)n[nH]1 [CBK262669] | 109.241
32 | CCOC(=O)C1=C(C)N(CCO)C(=O)NC1c1ccccc1Br (stereo not shown) [CBK027192] | 113.883
33 | CC(NCC(O)c1ccco1)c1ccc(C#N)s1 (stereo not shown) [CBK304265] | 117.947
34 | COC(=O)CCCC(=O)n1c(=O)n(Cc2ccc(S(C)(=O)=O)cc2)c2ccccc21 [CBK106538] | 65.5575
35 | CC(C(=O)NC1(C#N)CCCCC1)N1CCOC(Cn2cncn2)C1 (stereo not shown) [CBK305359] | 107.117
36 | O=C(O)CCc1ccc(-c2ccc(N3CCN(CCN4CCCC4)CC3)nc2)cc1 [CBK037796] | 152.927
37 | N#Cc1sc2c(c1NC(=O)C(F)(F)F)CCCC2 [CBK019233] | 128.278
38 | O=C(c1ccc(CCN2CCCC2)nc1)N1CCN(CCc2ccccc2)CC1 [CBK200227] | 104.921
39 | Cc1cc(C)n(C(C(=O)NCCOc2ccc(F)cc2)C(C)C)n1 (stereo not shown) [CBK281595] | 136.915
40 | Cc1nc(NC(=O)C2CC(=O)N(c3cccc(C(C)C)c3)C2)sc1-c1n[nH]c(=S)n1C (stereo not shown) [CBK295306] | 164.998
41 | COc1ccc(-c2cc(C(=O)NCc3cc(Cl)cc(Cl)c3)cnc2-c2ccc(Cl)cc2)cn1 [CBK037431] | 217.11
42 | N#Cc1ccc(N)c2ccccc12 [CBK015754] | 116.142
43 | Cc1cc(Cn2nnc(-c3cccnc3)n2)cc(C)c1O [CBK291130] | 115.678
44 | CC(C)CCc1csc(C2CN3CCCC3CO2)n1 (stereo not shown) [CBK304266] | 141.962
45 | CS(=O)(=O)N1CC2(CCN(CCc3ccccc3)CC2)c2ccccc21 [CBK084015] | 138.084
46 | O=C(NC(=S)CC1C=NCS1)c1ccccc1 (stereo not shown) [CBK020794] | 74.5431
47 | Cc1ccc(S(N)(=O)=O)cc1NC(=O)Cc1ccccc1 [CBK024413] | 109.096
48 | O=C(CCc1nc2ccccc2[nH]1)Nc1ccc(F)cc1 [CBK267238] | 113.48
49 | Cc1ccc(Nc2cc(-c3cccc(N)c3)ncn2)cc1NS(C)(=O)=O [CBK091145] | 173.281
50 | O=C(O)CCC(=O)Nc1nc(-c2ccccc2)cs1 [CBK286947] | 124.941
51 | CN1CCN(C(=O)c2cc(-c3ccc(C(=O)N4CCOCC4)cc3)cnc2N)CC1 [CBK158584] | 130.508
52 | O=C(O)CCC(=O)Nc1cccc(C(=O)Nc2cccc(Cl)c2)c1 [CBK296977] | 112.491
53 | CC1(C)CC(NC(=O)c2cc([N+](=O)[O-])ccc2Cl)CC(C)(C)N1 [CBK263948] | 126.962
54 | O=C(N/N=C/c1ccc([N+](=O)[O-])cc1)C(=O)Nc1cccc(Cl)c1 [CBK261821] | 111.863

Compounds 7 through 27, quoted:
Row | SMILES | % of control remaining [%]
7 | CC1(C)CC(=O)C(=CNCCC(c2ccccc2)c2ccccc2)C(=O)C1 [CBK262057] | 84.1983
8 | CC(C)(C)C(=O)N1CCC(c2nc3ccccc3cc2N)CC1 [CBK285039] | 116.671
9 | COc1ccc(S(=O)(=O)N(C)CC(=O)NCc2cccnc2)cc1Cl [CBK268089] | 77.523
10 | Cc1c(C(=O)Nc2cccnc2)nnn1-c1cccc(C(F)(F)F)c1 [CBK107389] | 100.939
11 | CC(C)c1cc(C(=O)NC2CCN(c3ncccc3C#N)CC2)n(C)n1 [CBK306975] | 86.3427
12 | Cn1nccc1C(=O)N1CCN(c2ncccn2)CC1 [CBK288240] | 128.645
13 | CCN1CCN(CC(=O)N/N=C/c2ccc(F)cc2)CC1 [CBK261615] | 92.7252
14 | O=C(c1ccccn1)N1C[C@@H]2OCC(=O)N(Cc3ccccc3)[C@@H]2C1 [CBK289698] | 126.233
15 | OCCNCc1cc(Br)ccc1OCc1ccc(F)cc1 [CBK266421C] | 138.225
16 | CC(=O)Nc1cccc(Oc2nccnc2-c2cnn(Cc3ccccc3)c2)c1 [CBK107096] | 148.28
17 | CCCS(=O)(=O)NC1CCN(c2nc(C(F)(F)F)nc3ccsc23)CC1 [CBK304591] | 107.299
18 | O=C(Nc1ccncc1)c1cc2cc(OC(F)(F)F)ccc2[nH]1 [CBK107369] | 123.046
19 | O=C(NCCC1SC(NC2CCCCCC2)=NC1=O)Nc1ccc(C(F)(F)F)cc1Cl (stereo not shown) [CBK067682] | 122.862
20 | Oc1cccc(-c2cn3ccnc3c(NCc3ccccn3)n2)c1 [CBK037535] | 175.219
21 | COc1ccc([C@@]23CC[C@@H](NS(=O)(=O)c4cccc5cccnc45)C[C@@H]2N(C)CC3)cc1OC [CBK056849T] | 118.321
22 | c1ccc(C2CCCNC2)cc1 (stereo not shown) [CBK011753] | 97.5645
23 | CN1CCC(=NNC(=O)CSCc2ccccc2Br)CC1 [CBK026542] | 109.604
24 | COc1cc(CNC(=O)c2ccc(-c3ccc(NC(C)=O)cc3)nc2)cc(OC)c1OC [CBK158851] | 129.249
25 | CCOc1cc2c(cc1CN(Cc1ccc3c(c1)OCO3)CC(C)O)CCC2 (stereo not shown) [CBK286474] | 120.607
26 | COc1ccc(OC)c(NC(=O)CSc2nnc(-c3ccco3)o2)c1 [CBK267429] | 111.173
27 | CCn1c(=O)n(CC(=O)NCc2ccccc2)c2cccnc21 [CBK283824] | 96.5567

(continued)

Row | SMILES | % of control remaining [%]
55 | Fc1cc(F)cc(-c2nnc(Cc3nc(-c4ccncc4)no3)o2)c1 [CBK288602] | 117.666
56 | CC(=O)N1C[C@@H](c2ccsc2)[C@@H]2CN(CC3CCCCC3)CC[C@@H]21 [CBK284587] | 129.529
57 | COCOc1ccc(-c2ncc(OC)nc2NC(=O)COC)cc1 [CBK145216] | 102.844
58 | Cc1ccc(C)c2[nH]c(=O)c(CN(CCN3CCOCC3)Cc3nnnn3C3CCCCC3)cc12 [CBK108116] | 107.6
59 | COc1ccccc1NC(=O)/C(=C\c1cccnc1)NC(=O)c1ccccc1 [CBK261649] | 118.418
60 | Cc1ccc(S(=O)(=O)Nc2nccnc2-c2ccc(Cc3nnn[nH]3)cc2)cc1 [CBK073841] | 114.813
61 | Cc1nc(C2(O)CCCN(C3CCCCC3)CC2)sc1COc1ccc(F)c(F)c1 (stereo not shown) [CBK286499] | 97.3436
62 | CC(C)c1nccn1CC(=O)NCCOc1ccc(F)cc1 [CBK281597] | 136.326
63 | Cc1oc(-c2ccccc2)nc1C(=O)O [CBK047490] | 149.519
64 | CCC(CO)Nc1cncc(-c2cc(OC)c(OC)c(OC)c2)n1 (stereo not shown) [CBK037882] | 132.694
65 | Cc1nn(C)c(Cl)c1S(=O)(=O)Nc1cc(NC2CCNC2)c2occc2c1 (stereo not shown) [CBK067807C] | 92.2309
66 | COc1cncc(-c2cc(N3CCC(N4CCCCC4)CC3)ncn2)c1 [CBK090964] | 195.879
67 | O=C(Nc1ccc2ncccc2c1)c1ccc(Cl)cc1Cl [CBK159793] | 115.166
68 | CC(=O)CSc1nnc(COc2ccc(C3CCCCC3)cc2)n1-c1ccccc1 [CBK265026] | 84.6072
69 | O=C(O)C1CCC(N2C(=O)C3C4CCC(C4)C3C2=O)CC1 (stereo not shown) [CBK287183] | 98.8816
70 | O=c1[nH]c2ccccc2n1C1CCN(S(=O)(=O)c2ccc(OC(F)(F)F)cc2)CC1 [CBK149690] | 115.889
71 | CCNc1nnc(SCCC(=O)N2CCN(c3ccc(F)cc3)CC2)s1 [CBK305058] | 94.9943
72 | CCN(C(=O)c1cnc2scc(C)n2c1=O)c1ccccc1 [CBK287452] | 107.533
73 | O=C(NCCCN1CCOCC1)c1nn2c(C(F)(F)F)cc(-c3cccs3)nc2c1Cl [CBK262553] | 122.114
74 | Cc1ccc(S(=O)(=O)NCC(C)O)cc1-c1nnc2c3ccccc3c(C)nn12 (stereo not shown) [CBK266614] | 180.391
75 | COc1ccc2[nH]c(SCC(=O)O)nc2c1 [CBK091620] | 121.669
76 | CC(C)CC(C(=O)Nc1nnc(C(C)C)s1)N1C(=O)c2ccccc2C1=O (stereo not shown) [CBK091610] | 100
77 | CC(=O)Nc1ccc(-c2cccc(COC3CCN(C(=O)c4ccc(OC(C)C)cc4)CC3)c2)cc1 [CBK149485] | 10.9178
78 | Cc1ccc2oc(-c3cc(NC(=O)c4nc[nH]n4)ccc3O)nc2c1 [CBK266900] | 108.472
79 | Cn1c(Cc2csc(NC(=O)CNC(=O)Cc3ccccc3)n2)n[nH]c1=S [CBK296765] | 188.384

— article PMC12040169 (PLOS Biology, 2025)
